# Results published in PMC11784589.
# The exact form of at least one protein or probe is not confirmed. Negatives hold for the conditions tested. At least one verdict was read from the data and is not stated in words by the source. Where a protein sequence is shown, tags need not be part of it.
# Target: T1, BcMYB30-His (UniProt A0A816SUQ6)
# T1 sequence (looked up, limits assumed): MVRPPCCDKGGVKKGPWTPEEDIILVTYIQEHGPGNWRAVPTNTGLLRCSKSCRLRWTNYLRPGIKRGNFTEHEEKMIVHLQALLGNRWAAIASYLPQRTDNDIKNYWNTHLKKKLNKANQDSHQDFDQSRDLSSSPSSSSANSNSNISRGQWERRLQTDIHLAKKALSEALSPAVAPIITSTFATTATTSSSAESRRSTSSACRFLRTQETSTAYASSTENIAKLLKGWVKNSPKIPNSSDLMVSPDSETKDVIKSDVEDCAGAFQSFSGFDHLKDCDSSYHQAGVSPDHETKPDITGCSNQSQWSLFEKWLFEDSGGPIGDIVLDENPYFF
# Assay: EMSA
# Conditions: EMSA: 24 °C, 30 min; chemiluminescent EMSA kit (Thermo Fisher); salt and pH not stated; recombinant protein; protein details: His (pET-28a)
row,Sequence,binding result
1,ACAAATGTTTTTTAAGGAGAA (double strand) [EMSA-SRC2-2-mut],no binding
2,TGGTGTATTTTTTATGTTCGG (double strand) [EMSA-SRC2-1-mut],no binding
